# Screening data

The results are deposited in PubChem (AID1159506; NCATS, 2015).

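Luminescence from an EWS-FLI1 target-promoter (NR0B1) reporter, set against a CMV-promoter reporter, two days after silencing single genes in TC32 Ewing sarcoma cells. Each siRNA was applied at 20 nM. A z-score of the log NR0B1-over-CMV signal, less the median of siRNAs with the same seed; more negative means a stronger specific loss of the NR0B1 reporter.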

This is part of the screen; most of the strongest results are not listed here. Sequences are the guide (antisense) strand, without overhang.

strand	target gene	seed-corrected z-score
AUCAGAACUAUUGAGGUCC	GP2	2.178
UGCUAUACCCUAAAGAAUC	EPHX4	0.5984
AAAGAUUGCAAAUCCAUUG	SLCO4C1	0.6565
UUACUGAUAAGUGACCGGU	LOC401052	0.9155
AAUUUUCCUAUUGAUCACG	CCL8	0.7128
UUCGAACUAAUUCUAUUCC	RBM44	0.07335
AUAUUUCUCCACAUAAUCG	LINC00847	0.007135
AUUUGAAUCAGGAUGGAAC	PIGM	0.1956
AUUGCUAGUAUUAUUACCC	ITGA8	-0.9504
UGAGUAGCUGUGAGCAUCC	PLXDC1	-1.472
UUCUUUUUCAUGGUCAAGG	ZNF704	-1.271
UCCAGUGUCACUGUGAAGU	FPGS	0.8949
AUAGGUCCGGUAAUGCUCG	C6orf136	0.119
UGUCAUAUCAGGGCGCACU	RBCK1	0.06164
UACCUUAUGAAUAGCCUCC	GTF3C2	-1.019
AUUGUUGUAGAAGUUCACC	DPEP1	-1.641
UCCACGACCGUGUAAACCU	AP2S1	-0.9123
UCAAGCUUCAGAGUUUGGG	GLDN	2.251
UUCCGGAACUCGAUGAAGG	PMM1	-0.0362
UCGAGGACUAAGUCCCUGU	SPANXN5	-0.6287
UAGUUGCUGAAAGUACAGG	CTTNBP2	-1.95
AUAGAUCCAAAUGCCGGGC	FLRT3	-1.35
UUUCUCAUGAGCGCGGGUG	KLC2	-0.2331
AGAGUUAUAGGAAUUGUAG	MRVI1	-0.2011
UUAGCUUGAUAAAAUACGG	UNG	0.9463
AUACUUGAAAUGCUCAUGC	ENOSF1	-0.1636
AUAGUUAUUCAGCAGGUAG	ALG12	-0.8942
UGUCCUACAUCUUCAAAGC	CYB5B	-1.068
UCCGUCUUGACCACAUUGC	INHBE	-0.5727
AAAUUGCCUGUGAAUUUGC	DHCR7	0.2129
ACAGUAGAAACCAGCAUCA	MS4A6E	0.1349
UCCUUCCUCACGGAUACUC	FAM102B	-0.384
UAGGGAUACACUUCACAGC	CAMK1D	-0.6012
UAACAUUUUAACUUGUCUG	LINC00961	0.3327
AUAGGGUCCACAAUCGUUC	TMEM8A	1.235
AAAGUGGAACCAGGCAUCC	TRPV3	0.5741
UUCAUCUCCACAUAUAGAG	C11orf85	-0.1147
UUUCAUUGAUUUUGGUCCC	PCBP3	0.06255
AACGGAAUUAUCCACAGGC	TEX261	-0.4241
UGAUGUUUAAUGGAUAGCG	RRH	0.7373
ACAUCUAUCAUAUAUGAGG	SEPP1	-0.0548
AACUGGAUGAGAUUCUGCC	FAM206A	-1.323
AGUGAUAUAUUGAUUUUCC	ADH6	1.618
UCCAGAACCAGGAUAGUAG	PROS1	-0.2691
UGAGUAGAAACAGAGAGUG	LINC00545	-1.413
AUAGCUUUUCAUGUUCAGC	MSS51	2.082
UGAAACUUAACAUCGUCCC	PEX5L	-0.4833
UUUCAUCUCAGCACAGCGG	ALS2CR12	-0.8297
AUUAAGCUCAUCUAAGUCC	MB21D2	1.222
UUAUUGUAUAAAUAGAGAC	PRAC1	1.012
UAAGGUAUGAAGGUGUCUG	BHMT	0.2316
AUAAAUCCCAGAGUAAUGU	LARGE	1.222
AUAGUAGACCCAGCGUCGC	S1PR4	0.972
UGCUGCACCAAUAAGAGAC	PRELID3BP10	0.8337
UCUUCUACUAUUUGCUUGG	CYLC1	-0.9448
UCCCGGCUAGGAUAGAUCU	RING1	-0.7905
UGCACUUCAAGGUCGGACG	FANCD2OS	-0.8783
UCCAUAUCCAGAUGGAACC	SEC24B	0.4685
UAGGUAAUGCUGAUAGUGC	RNF165	-1.351
UUCCUGCUCAAUGAAAGCC	ATP6V1E2	-0.5196
UUGAUAUCAACUUAGCACG	RRP15	-0.206
UACACGAUGAAAUAUGGGC	NPY	-0.4227